Values from PubChem BioAssay AID1259308 (NCATS, 2017).

- Screen: 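Candidate targets for better recombinant protein yield in mammalian cells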 (primary screen)
- Cells: human HEK293 embryonic kidney cells stably expressing firefly luciferase (HEK-CMV-Luc2-Hygro)
- Reagents: single siRNA against human genes, 0.8 pmol siRNA per well
- Duration: 72 h
- Read-out: 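Luciferase light (ONE-Glo) measured on one replicate plate set and viability (CellTiter-Glo) on the other, scaled to a negative control siRNA, with robust z-scores and luciferase per cell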
- Direction: total luciferase, z-score and total luciferase, % of control: higher = more reporter protein produced; luciferase per cell, z-score: higher = more reporter output per viable cell; viable cells, % of control: higher = more viable cells
- Active means: 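An siRNA counts as active if its total luciferase robust z-score exceeds 3; genes with two or more such siRNAs out of three were retested with fresh siRNAs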
- Calls: active = raised luciferase; inactive = no rise
Shown is an unselected part of about 59,000 deposited reagents. About 1,510 of them (2.6%) were called active. 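Calls use total luciferase alone and ignore viability, so some active siRNAs may act by altering cell number.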 Reagents against one gene are numbered here. Reagent sequences are not shown.

The opening 5 entries, to show the layout:
| Gene | reagent no. | total luciferase, z-score | total luciferase, % of control | luciferase per cell, z-score | viable cells, % of control | Outcome |
| --- | --- | --- | --- | --- | --- | --- |
| RAN | 1 | -1.27 | 56.6 | 1.49 | 42.7 | inactive |
| RAN | 2 | -1.15 | 59 | 1.82 | 40.9 | inactive |
| RAN | 3 | -0.91 | 63.8 | 1.45 | 48.7 | inactive |
| SMARCAL1 | 1 | -1.25 | 57.1 | -1 | 83 | inactive |
| SMARCAL1 | 2 | 1.3 | 108 | 1.35 | 84.3 | inactive |

The listing, repeating the preview:
| Gene | reagent no. | total luciferase, z-score | total luciferase, % of control | luciferase per cell, z-score | viable cells, % of control | Outcome |
| --- | --- | --- | --- | --- | --- | --- |
| RAN | 1 | -1.27 | 56.6 | 1.49 | 42.7 | inactive |
| RAN | 2 | -1.15 | 59 | 1.82 | 40.9 | inactive |
| RAN | 3 | -0.91 | 63.8 | 1.45 | 48.7 | inactive |
| SMARCAL1 | 1 | -1.25 | 57.1 | -1 | 83 | inactive |
| SMARCAL1 | 2 | 1.3 | 108 | 1.35 | 84.3 | inactive |
| SMARCAL1 | 3 | -0.669 | 68.6 | -0.0688 | 78 | inactive |
| SLFN12L | 1 | 0.428 | 90.4 | 0.652 | 85.1 | inactive |
| SLFN12L | 2 | 1.85 | 119 | 1.66 | 85.7 | inactive |
| SLFN12L | 3 | -0.316 | 75.6 | -1.14 | 114 | inactive |
| XKR9 | 1 | 0.692 | 95.7 | 0.138 | 103 | inactive |
| XKR9 | 2 | -0.865 | 64.7 | -0.942 | 92.6 | inactive |
| XKR9 | 3 | -2.23 | 37.5 | -2.25 | 75.7 | inactive |
| MSLN | 1 | 0.514 | 92.1 | 1.73 | 65.3 | inactive |
| MSLN | 2 | -0.786 | 66.3 | 2.4 | 39.3 | inactive |
| MSLN | 3 | -0.872 | 64.5 | -0.094 | 73.9 | inactive |
| CPSF7 | 1 | 3.44 | 150 | 1.99 | 99.5 | active |
| CPSF7 | 2 | 0.0979 | 83.8 | -0.349 | 103 | inactive |
| CPSF7 | 3 | 0.483 | 91.5 | 0.281 | 94.9 | inactive |
| CHCHD4 | 1 | 1.77 | 117 | 1.84 | 80.6 | inactive |
| CHCHD4 | 2 | -1.28 | 56.4 | -2 | 107 | inactive |
| CHCHD4 | 3 | -0.345 | 75 | -0.667 | 99.9 | inactive |
| OR51F2 | 1 | -0.101 | 79.9 | 0.666 | 74.9 | inactive |
| OR51F2 | 2 | -1.09 | 60.2 | -0.17 | 70.3 | inactive |
| OR51F2 | 3 | 4.82 | 178 | 3.34 | 82.4 | active |
| CBR3 | 1 | -1.39 | 54.3 | -1.31 | 85.7 | inactive |
| CBR3 | 2 | -0.225 | 77.4 | -0.54 | 99.7 | inactive |
| CBR3 | 3 | 0.287 | 87.6 | 0.486 | 86.1 | inactive |
| CNIH4 | 1 | 0.365 | 89.1 | 0.145 | 95.9 | inactive |
| CNIH4 | 2 | -0.265 | 76.6 | -0.0938 | 87.7 | inactive |
| CNIH4 | 3 | -1.19 | 58.1 | -1.24 | 90 | inactive |
| KRTCAP3 | 1 | 0.553 | 92.9 | 1.15 | 76.7 | inactive |
| KRTCAP3 | 2 | -0.113 | 79.6 | 0.175 | 85 | inactive |
| KRTCAP3 | 3 | -0.627 | 69.4 | -0.0918 | 79.5 | inactive |
| SCUBE1 | 1 | -1.28 | 56.4 | -1.43 | 91.8 | inactive |
| SCUBE1 | 2 | 0.99 | 102 | 1.13 | 84.4 | inactive |
| SCUBE1 | 3 | -0.443 | 73.1 | -0.276 | 87.8 | inactive |
| PIK3R5 | 1 | 2.64 | 134 | 1.5 | 101 | inactive |
| PIK3R5 | 2 | -0.624 | 69.5 | -0.376 | 85.7 | inactive |
| PIK3R5 | 3 | -1.08 | 60.5 | -1.49 | 100 | inactive |
| CACUL1 | 1 | 0.372 | 89.3 | 0.838 | 80 | inactive |
| CACUL1 | 2 | -1.7 | 48.1 | -1.44 | 78.6 | inactive |
| CACUL1 | 3 | -0.76 | 66.8 | 2.19 | 41.9 | inactive |
| NOSTRIN | 1 | -0.287 | 76.2 | -0.192 | 89.5 | inactive |
| NOSTRIN | 2 | 0.194 | 85.7 | -0.12 | 98.9 | inactive |
| NOSTRIN | 3 | -0.396 | 74 | -0.854 | 104 | inactive |
| SLC38A1 | 1 | -1.27 | 56.6 | 0.79 | 51.3 | inactive |
| SLC38A1 | 2 | 0.244 | 86.7 | 0.648 | 81.7 | inactive |
| SLC38A1 | 3 | -1.04 | 61.3 | -0.556 | 79.2 | inactive |
| RNF157 | 1 | -0.237 | 77.2 | -0.562 | 100 | inactive |
| RNF157 | 2 | 0.127 | 84.4 | 0.562 | 81.3 | inactive |
| RNF157 | 3 | -0.119 | 79.5 | -0.188 | 93.4 | inactive |
| HMOX1 | 1 | 0.0266 | 82.4 | -1.39 | 133 | inactive |
| HMOX1 | 2 | 1.86 | 119 | 0.526 | 116 | inactive |
| HMOX1 | 3 | 0.674 | 95.3 | 0.686 | 88.9 | inactive |
| JPH1 | 1 | -0.388 | 74.2 | 0.0569 | 81.6 | inactive |
| JPH1 | 2 | 1.51 | 112 | 0.755 | 103 | inactive |
| JPH1 | 3 | -0.0673 | 80.5 | -0.564 | 104 | inactive |
